Measurements as given in article PMC5707026.
Results are given in words; binding and its absence hold for the method and conditions named. In cells and extracts the contact can be indirect. Sequences can lack the tags named with a protein.

The chains behind the UniProt entries cited, without tags or fusion partners. Where a name states a change or a piece, a line headed by the entry shows the natural chain unless it says otherwise.
UniProt Q07008: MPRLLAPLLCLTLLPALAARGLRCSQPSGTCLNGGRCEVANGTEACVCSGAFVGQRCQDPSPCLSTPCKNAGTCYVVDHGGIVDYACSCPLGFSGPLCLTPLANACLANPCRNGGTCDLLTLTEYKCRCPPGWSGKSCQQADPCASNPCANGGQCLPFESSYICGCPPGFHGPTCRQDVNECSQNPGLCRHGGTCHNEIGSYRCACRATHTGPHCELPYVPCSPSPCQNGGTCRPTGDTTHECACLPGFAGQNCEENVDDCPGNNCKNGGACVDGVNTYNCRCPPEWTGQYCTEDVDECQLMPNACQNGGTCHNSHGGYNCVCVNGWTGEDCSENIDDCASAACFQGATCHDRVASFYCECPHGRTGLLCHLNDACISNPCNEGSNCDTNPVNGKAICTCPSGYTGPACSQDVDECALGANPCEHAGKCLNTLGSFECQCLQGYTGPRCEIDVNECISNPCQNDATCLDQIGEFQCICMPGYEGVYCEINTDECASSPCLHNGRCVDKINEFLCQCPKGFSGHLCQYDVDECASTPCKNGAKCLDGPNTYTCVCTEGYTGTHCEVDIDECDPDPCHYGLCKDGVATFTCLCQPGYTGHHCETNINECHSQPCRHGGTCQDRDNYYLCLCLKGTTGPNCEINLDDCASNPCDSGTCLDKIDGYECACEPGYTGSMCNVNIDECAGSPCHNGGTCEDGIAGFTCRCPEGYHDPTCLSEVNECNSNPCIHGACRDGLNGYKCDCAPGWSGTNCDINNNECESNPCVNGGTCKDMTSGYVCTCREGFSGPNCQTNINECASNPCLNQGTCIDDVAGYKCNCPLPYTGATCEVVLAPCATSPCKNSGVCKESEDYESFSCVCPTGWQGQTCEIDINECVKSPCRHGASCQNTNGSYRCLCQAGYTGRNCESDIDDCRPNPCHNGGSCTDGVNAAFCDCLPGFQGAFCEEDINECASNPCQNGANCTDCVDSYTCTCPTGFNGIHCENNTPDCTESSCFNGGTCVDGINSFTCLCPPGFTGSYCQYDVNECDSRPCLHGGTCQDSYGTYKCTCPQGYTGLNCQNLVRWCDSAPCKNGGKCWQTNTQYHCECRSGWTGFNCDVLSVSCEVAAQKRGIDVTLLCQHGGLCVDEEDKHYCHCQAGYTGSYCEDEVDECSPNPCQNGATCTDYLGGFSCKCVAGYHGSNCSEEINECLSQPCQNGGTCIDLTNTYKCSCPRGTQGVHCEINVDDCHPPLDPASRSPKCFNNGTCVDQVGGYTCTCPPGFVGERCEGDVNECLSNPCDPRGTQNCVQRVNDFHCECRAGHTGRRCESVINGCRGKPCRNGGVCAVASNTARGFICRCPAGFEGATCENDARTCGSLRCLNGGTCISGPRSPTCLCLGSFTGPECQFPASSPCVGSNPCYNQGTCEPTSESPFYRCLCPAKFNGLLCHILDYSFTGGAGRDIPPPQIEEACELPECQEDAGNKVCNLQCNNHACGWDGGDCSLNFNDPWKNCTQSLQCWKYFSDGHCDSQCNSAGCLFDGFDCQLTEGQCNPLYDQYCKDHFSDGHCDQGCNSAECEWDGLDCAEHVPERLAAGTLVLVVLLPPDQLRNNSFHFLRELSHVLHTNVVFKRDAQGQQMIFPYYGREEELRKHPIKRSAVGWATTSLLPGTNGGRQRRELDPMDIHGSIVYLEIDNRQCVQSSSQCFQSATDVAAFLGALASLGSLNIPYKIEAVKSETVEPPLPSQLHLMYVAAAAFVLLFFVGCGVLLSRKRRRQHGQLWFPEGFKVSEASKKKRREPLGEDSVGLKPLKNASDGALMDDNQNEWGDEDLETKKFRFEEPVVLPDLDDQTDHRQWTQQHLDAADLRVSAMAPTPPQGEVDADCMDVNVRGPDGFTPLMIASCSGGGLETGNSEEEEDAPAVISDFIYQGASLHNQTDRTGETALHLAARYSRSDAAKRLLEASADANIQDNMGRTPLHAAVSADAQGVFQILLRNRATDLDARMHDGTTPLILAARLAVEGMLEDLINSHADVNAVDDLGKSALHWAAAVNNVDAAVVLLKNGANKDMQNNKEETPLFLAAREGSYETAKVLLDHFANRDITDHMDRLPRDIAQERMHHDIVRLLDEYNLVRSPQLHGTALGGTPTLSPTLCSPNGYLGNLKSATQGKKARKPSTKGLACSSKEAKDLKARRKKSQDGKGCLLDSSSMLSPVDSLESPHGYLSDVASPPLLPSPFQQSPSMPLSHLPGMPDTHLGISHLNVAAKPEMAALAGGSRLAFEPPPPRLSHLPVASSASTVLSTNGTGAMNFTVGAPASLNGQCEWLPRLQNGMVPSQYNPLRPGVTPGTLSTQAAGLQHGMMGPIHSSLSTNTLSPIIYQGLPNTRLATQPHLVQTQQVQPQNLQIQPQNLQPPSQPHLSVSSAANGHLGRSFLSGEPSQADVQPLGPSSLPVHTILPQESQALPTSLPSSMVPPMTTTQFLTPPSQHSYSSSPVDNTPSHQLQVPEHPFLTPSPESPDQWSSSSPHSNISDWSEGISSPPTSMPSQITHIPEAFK

Molecular target: Notch1 transmembrane intracellular domain (Notch1-TMIC) (rat (endogenous in rat brain)) (UniProt Q07008)
Assay: co-IP; brain samples of ICH rats transfected in vivo with GFP-Botch plasmids, lysed in ice-cold RIPA buffer; lysate with specific antibodies or normal IgG 1 h at 4 °C, protein A+G agarose overnight at 4 °C, immunoblot; which antibody precipitated is not stated

B1: wild type GFP-Botch (rat Botch, NPG7/Chac1) (protein, UniProt B3STU3 1-222)
chain: MKQESAAQSTPPPSLSPAPSAQPSWEDGDPQALWIFGYGSLVWKPDFAYSDSRVGFVRGYSRRFWQGDTFHRGSDKMPGRVVTLLEDHEGCTWGVAYQVRGEQVSEALKYLNVREAVLGGYDTKEVTFYPQDTPDQPLTALAYVATPQNPGYLGPAPEEVIATQILACRGFSGHNLEYLLRLADFMQLCGPQAQDEHLEAIVDAVGSLLPCSYLSEQPLALI
B1 was tested, and the binding was “no binding”.
